Here are results for 107 sequences from PubChem BioAssay AID1508600 (Functional Genomics Laboratory (NCATS/FGL), 2020).

The campaign covered roughly 53,000 sequences. About 3,700 (7%) were called active.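 The calls were made as follows: active = gene knockdowns whose robust z-score for IL-1 alpha signal is at least 2 or at most -2, so actives lie on both sides; inactive = the rest.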 Some of the results follow.

The test can be described thus: Components of the Cytosolic LPS Sensing Pathway: Gene Identification via Genome-wide siRNA Screen.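 Also: robust z of the log signal after scaling to non-targeting control siRNA wells of the plate.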 Particulars: RAW264.7 macrophages, IL-1a HTRF, actives lie on both sides, screened at 100 nM (by protocol), cells primed 5 h with Pam3CSK4 first. A digest of the protocol:
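Cells (RAW264.7, 1×10^4 per well) were transfected with siRNA at 100 nM and cultured 48h at 37 degrees C. Pam3CSK4 was added for 5 hours; LipidA transfection followed for 24 hour. IL-1a was then measured by HTRF.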
Background: TR-FRET usually uses a lanthanide donor and a delayed reading to cut background.
As to CCUCAAGUACUGUAAUCACTT against Atf2, the z-score is inactive: -0.287. Turning to GGUAUUCGUUUCAUCUACATT against Hnrnph1, the z-score was inactive: 1.35. The result for GCCCAUAGUAAAUUUGUUATT against Zcchc12 reads inactive: -0.159; that for GGAGGACAAUGAGGACGAUTT against Chrac1, active: 2.1.

As for GGCUUGAGGCCUUUCUCUATT against Zfpl1, the z-score is inactive: 1.92.

Turning to GGCAACACGAUGCAGCAGUTT against Fam50a, the z-score was inactive: -0.36. On to GGUAAAAGCUCAGAUUCACTT against Ncoa4, for which the z-score was inactive: 0.241. Regarding GGACUUGGUGACUUACUUCTT against Smpdl3b, the z-score is inactive: -1.42. Consider CCAUGUCUAUUCAAAAAGCTT against Wdr6, for which the z-score is inactive: 0.452. Turning to CCCGCUACAACAACCUGAUTT against Chrnb4, the z-score is inactive: -0.95. GGGCAACGUAUUCACAUUATT against Manbal: the z-score is active: 2.86. Consider GGUAGAAGUGAAAUAUUCUTT against Ndufaf1, for which the z-score is inactive: -0.763.

As for GGAGUUGCUGUGUAUGACATT against Hspa1a, the z-score was inactive: -1.41. The result for GCACCAAGCGUGUAAAAACTT against Mterf1a reads inactive: 0.926; that for GCAGGGAUCUGCUAAGCUATT against Hey1, inactive: -0.953; that for GGGCCUGUGGAAUUUGUUCTT against Acad11, inactive: 1.6. For GGCAGAGAUAACCUUUAAATT against Sphk1, the z-score was inactive: 0.488. Turning to GGCAAGCUGUAAAAGAUGCTT against Noc3l, the z-score is active: 3.32. For the sequence GUACAUGCCCUUUGAACAUTT against Clcn1, the z-score is inactive: -0.826. With GGACGAUCGAUCGUUAACUTT against Ier5, the z-score is inactive: 0.639.

Take GGAAACAUCUUGUUGAAGATT against BC106179: the z-score is inactive: 0.361. The result for GGAACAAAUAAAUCAGGGATT against Smc6 reads inactive: 0.608; that for GGAUCUUUUUGUUUUUCCUTT against Commd8, inactive: 0.752; that for GGCAUGUAGAGGACUAAUGTT against Cldn10, inactive: 0.706. GGAAUCAAAUGGCGUAGGUTT against Med13l: the z-score is inactive: 0.0663. Regarding GGCAUGAUUGUUUUGAUCCTT against Olfr1500, the z-score was inactive: -0.26. With GGACUCAUUGACUUCAUCATT against Atg12, the z-score was inactive: -1.8. Consider CCUACUCAAGUACCCUAAATT against Zfp59, for which the z-score was inactive: -0.356. Turning to CCAGAAACUUAACAACGACTT against Bpgm, the z-score is inactive: 0.534. Consider GCCGUCUACCCUGAUAACATT against Cp, for which the z-score is inactive: 0.67. Consider GCUGAUGGCGUACAUUGAATT against Fut10, for which the z-score is inactive: -1.38. Take GCUUGGUGAGACUUUAACCTT against Nhlh2: the z-score was inactive: 0.179. With “GGGCCACAGGAUCUCACUUTT against 1700009J07Rik”, the z-score was inactive: -1.88. Regarding GCUCAAGGCUAAGAUCAUUTT against Ttc41, the z-score was inactive: -0.949.

Regarding GCUUCAAAACAAACCCUUGTT against Parp11, the z-score is inactive: -1.58. Consider GGAUUUUUACAUUGAGUCUTT against Cdca5, for which the z-score is inactive: -1.88. Take UUUGCCGGGUUCCCAAAAGTT against Bud31: the z-score is inactive: 0.388. The result for GGAGCAUCAUUAUUCUGCATT against Gm527 reads inactive: -0.0903; that for GGCAAUUGGCUUAAACACATT against Serpinb9c, inactive: -1.35.

Consider CGGCUACGAGUGUGAACUGTT against Fgf7, for which the z-score is inactive: 0.557. Take GGAAGAUGACAAGAUCUAUTT against Rnf113a1: the z-score is inactive: 0.782.

For GUGUGAACAGAGGCAGAAATT against Xlr3a, the z-score is active: -2.46. Take GGUGGACUUCAACCUGAUUTT against Nodal: the z-score was inactive: 0.22. With GGCUUAUAUCUGAUUGAUGTT against Rom1, the z-score was inactive: -1.17.

GGAGGUUUAUAAAAUCGACTT against Tgfb2: the z-score is inactive: 1.14. Turning to GGUGAAGCAGUUUGACUUCTT against Rbm18, the z-score was inactive: 0.0154.

In the case of GCCGUAUGGCAGGUAUUUUTT against Tmem266, the z-score was active: 3.27. The figure for GGUAUUGAAUACAGGAAUUTT against Csnk1g3 is inactive: 1.33; for GGAGCAGAUUAAGUGCCUGTT against Krt82 it is inactive: 0.247; for CCAAUAUCUCCAAAUAGAATT against Atp8b1 it is inactive: -0.974. In the case of GGGCUUAUAAUAGAAGUCUTT against Dpy19l3, the z-score was inactive: -0.138. With “GGCUCAAGUUUGGAGUUUUTT against 2410137M14Rik”, the z-score was inactive: 0.501.

On to CCUCUAAAUCAAUGAGACATT against Zfp30, for which the z-score was inactive: 1.91.

On to CCAGUGUUGGUAACAAUAUTT against Stat4, for which the z-score is inactive: 0.0489. For GGUGAAGUCCCAGCUUGAATT against Cstb, the z-score was inactive: -0.509. The figure for GGAUUUAGCCAAUCAAUCUTT against Cdc14b is inactive: -0.872; for GGAAAUCCAUGAGAAGGUGTT against Ctbp2 it is inactive: 0.732.

As for GGCUGAAUGACUGCACUGGTT against Vamp5, the z-score is inactive: -1.03.

With GGAUGUGGAUGCUUACACCTT against Cdc23, the z-score is inactive: 0.0904. The result for GGAAAUUCUGAGGAAGAUUTT against Olfr744 reads inactive: -0.844.

Consider GCACUUAUCGACUAUUUCATT against Aff3, for which the z-score was inactive: -1.06.

On to CCUCUCUACAUAAAGUGCATT against Tmem174, for which the z-score was inactive: -0.651. Consider GGAACACACACUCUGGAAUTT against Tmem239, for which the z-score is inactive: -1.17. Consider GGCCUGAAAUAUAUGCUGGTT against Cst7, for which the z-score was inactive: -1.33. The figure for GGGCCAAUAAAGCAACUGCTT against Laptm5 is inactive: 0.704. The figure for GGAGAAGAAGAAAAGAACATT against Pom121 is inactive: 1.02; for GGUAGAAUCCGGUUACCACTT against Tox it is inactive: 0.704; for CCUCUUGGCCUCCUUUGAUTT against Tas2r143 it is inactive: -0.984. With GUGGACAUCCUCUCUGUCATT against Tmem54, the z-score was active: -2.23. The figure for CCUAGAUGACACUUGGGUGTT against Nup35 is inactive: -1.4; for GGGAGACUUUGUACGGAAGTT against Gars it is inactive: 1.89; for GCUAAUUAUUGAGUAUGCGTT against Klhl10 it is inactive: -0.77. Consider CCAUGGCUUAAAAGCCGAATT against Mapt, for which the z-score was inactive: 0.606.

Turning to “GUGUAUGCGCUGAUCCUAUTT against 1700020N01Rik”, the z-score is inactive: 0.181. On to GGUUAUGAUUGGUUUGAAGTT against Cisd2, for which the z-score is inactive: -0.629. For GGUUGGCGAGACUUCUACGTT against Pp2d1, the z-score is inactive: 0.885. The figure for GGGAGCUAGCAAAAUCGGATT against Eif4g3 is inactive: 0.714; for GGAACUGCUCAUAAAAACATT against Evi2b it is inactive: 0.0355; for GGCGAUCCACAAGUACAAUTT against Polb it is inactive: 0.947. As to GGACAAAAGAAAAGUAUCGTT against Cdx4, the z-score is inactive: -1.13. Take GGUUAAGAUUCCAGAGCCATT against Prune1: the z-score is inactive: -0.297. The result for GCUAAUACUGAAAUCGAUGTT against Ccdc73 reads inactive: 1.02; that for GGGACUCUGAUGGUUUUGATT against Dapp1, inactive: 1.07; that for GCACCAUGUCAGGAAGUGUTT against Cd300a, inactive: -0.613. CCUAUGGAAGGUUUAAGAUTT against Ptpn21: the z-score is inactive: 0.638. GGCUUCAGCAAAGACAAUGTT against Ache: the z-score is inactive: -1.07. As for “GCGAUUUUAACAUCUGGAATT against A930018P22Rik”, the z-score is inactive: 0.139. On to ACACCUGCCUGCAUCUACUTT against Tcp10a, for which the z-score is inactive: 1.5. Regarding CCUGUUGCUAAUCUCACAATT against Fcgr3, the z-score was inactive: 0.291. In the case of GGGAAGAGUUUCACGCUCATT against Runx3, the z-score is inactive: 1.26. As for GCACGAUGUACCUGAAUCUTT against Ifitm5, the z-score is inactive: 0.387. As to GGUCCAAGAGAAAUGUGUATT against Hacd4, the z-score was active: -2.55. The figure for GCCAUUGGAAUUUUGAAAUTT against Cfap206 is inactive: 0.514; for GGCACAAGUAACAGGCUCATT against Egfr it is inactive: -1.96; for GGUGGUAGAUAUUGUCCAUTT against Olfr420 it is inactive: 0.488. Consider GGUCUAGGUCUGAAGAUCCTT against Stxbp4, for which the z-score is inactive: 1.51. The result for GGAACAAAGAUUGAGAGAATT against Sltm reads inactive: -1.62. For the sequence GCCUUUCAUGGAUUAACCUTT against Gsdmc, the z-score was active: -2.03. In the case of GGAUCCAGAGGCUGUUAAATT against Casp9, the z-score was inactive: -0.813. As for GUCUUUUUUCUUUUUGACCTT against Olfr168, the z-score was inactive: -0.96. In the case of CCAGCAUAUCUACUGUUCUTT against Vmn1r235, the z-score was inactive: 0.503. The figure for GGCGACCUUUGUGUUUCCUTT against Vwa5a is inactive: -0.419; for GGGAUGCUUUGUGGCUGUATT against Olfr837 it is inactive: -0.143. Consider GGUCUAUGCGAUGCUAUACTT against Sarm1, for which the z-score is inactive: -0.508.

As to GGGAUGUUCUAUGUAAUAATT against Cog4, the z-score was inactive: 0.627.

Turning to GCCAAAUUUGUCAUCCACUTT against Macroh2a2, the z-score is inactive: -0.906. For GGAGCUGGAGAAGUUACUUTT against Amigo3, the z-score was active: 2.06.
